Measured values taken from doi:10.1101/587212.
These are yes or no findings as the source states them, for the method shown. Binding seen in cells or lysates may run through a third protein. Some entries that bind do so weakly or less than the wild type. For some assays here: Where a sequence is shown, tags or fusion partners need not be part of it.

The chains behind the UniProt entries cited, without tags or fusion partners.
UniProt P29466: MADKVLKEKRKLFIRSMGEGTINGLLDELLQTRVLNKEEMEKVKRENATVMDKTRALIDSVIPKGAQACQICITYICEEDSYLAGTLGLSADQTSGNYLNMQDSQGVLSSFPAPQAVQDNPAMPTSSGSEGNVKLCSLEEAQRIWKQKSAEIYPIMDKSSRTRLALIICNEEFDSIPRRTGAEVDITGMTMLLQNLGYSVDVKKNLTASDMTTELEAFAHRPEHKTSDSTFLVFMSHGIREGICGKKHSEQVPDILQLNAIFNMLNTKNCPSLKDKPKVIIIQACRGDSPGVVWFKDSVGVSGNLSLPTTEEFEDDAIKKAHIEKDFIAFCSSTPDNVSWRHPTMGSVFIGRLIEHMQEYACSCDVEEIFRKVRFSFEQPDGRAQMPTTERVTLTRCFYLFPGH

Key:
[1] = target: T1, mOrange-NOD1 (UniProt Q9Y239); experiment: FRET or BRET
T1 sequence: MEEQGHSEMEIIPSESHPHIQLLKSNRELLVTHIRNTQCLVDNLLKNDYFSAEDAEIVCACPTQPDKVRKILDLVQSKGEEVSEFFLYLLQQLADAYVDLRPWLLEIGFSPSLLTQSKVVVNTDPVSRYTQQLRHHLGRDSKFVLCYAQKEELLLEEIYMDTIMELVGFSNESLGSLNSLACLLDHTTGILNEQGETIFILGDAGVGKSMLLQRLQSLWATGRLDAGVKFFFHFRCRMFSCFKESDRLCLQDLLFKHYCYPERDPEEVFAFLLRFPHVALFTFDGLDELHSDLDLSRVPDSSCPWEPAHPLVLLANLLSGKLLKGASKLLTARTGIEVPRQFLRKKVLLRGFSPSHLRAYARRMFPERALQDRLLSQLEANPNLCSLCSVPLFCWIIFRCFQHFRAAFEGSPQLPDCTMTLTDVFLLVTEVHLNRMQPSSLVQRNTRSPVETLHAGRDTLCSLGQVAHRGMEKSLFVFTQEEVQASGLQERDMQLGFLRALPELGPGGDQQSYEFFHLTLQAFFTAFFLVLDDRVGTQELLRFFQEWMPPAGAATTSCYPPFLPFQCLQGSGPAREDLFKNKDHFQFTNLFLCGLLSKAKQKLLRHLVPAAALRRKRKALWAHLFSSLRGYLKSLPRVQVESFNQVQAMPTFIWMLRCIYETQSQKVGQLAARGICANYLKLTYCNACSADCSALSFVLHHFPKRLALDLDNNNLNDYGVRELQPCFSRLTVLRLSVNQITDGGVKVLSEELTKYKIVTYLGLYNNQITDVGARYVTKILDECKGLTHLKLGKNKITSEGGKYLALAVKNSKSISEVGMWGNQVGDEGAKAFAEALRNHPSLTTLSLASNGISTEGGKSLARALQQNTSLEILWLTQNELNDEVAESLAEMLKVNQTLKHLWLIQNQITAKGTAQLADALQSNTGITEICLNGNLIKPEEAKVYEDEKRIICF

[2] = target: T2, FLAG-tagged full-length NOD1 (NOD1-FLAG) (UniProt Q9Y239); experiment: co-IP
T2 sequence: T1 sequence

Substance | binding [1] | binding [2]
EGFP-caspase-1 (from UniProt P29466 1-404) (enzyme) | binds | –
endogenous caspase-1 (from UniProt P29466 1-404) (enzyme) | – | binds
